Values from PubChem BioAssay AID743121 (NCATS, 2013).
Screen: 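Partners whose loss is lethal together with topoisomerase I blockade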 (primary screen). Cells: MDA-MB-231 cells, a human breast cancer line. Reagents: single siRNA against human genes, 20 nM siRNA (0.8 pmol per well). Duration: 120 h (drug added 48 h after transfection, read 72 h later). Treatment: camptothecin 20 nM (about EC30) for 72 h; vehicle 0.1% DMSO in parallel plates. Measured: 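Cell viability by ATP luminescence (CellTiter-Glo) as % of non-targeting siRNA wells, and the log2 ratio of viability without drug over viability with camptothecin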. Direction: log2 vehicle/camptothecin viability: higher = stronger sensitisation to camptothecin. Active means: 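Each gene scored by redundant siRNA activity (RSA) over its individual siRNA ratios; a gene is called active at p < 0.001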.
Here is an unselected part of about 26,000 deposited reagents. 167 of all reagents (0.63%) were called active. 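Calls are per gene from RSA p-values that are not deposited; an individual active-marked siRNA can sensitise only weakly.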 Reagents against one gene are numbered here. Further read-outs or replicates are left out here.

Against PXDNL (GeneID 137902) #1 the deposit lists log2 vehicle/camptothecin viability -0.136; inactive.
PXDNL (GeneID 137902) #2 gave log2 vehicle/camptothecin viability 0.0261; inactive.
Silencing of PXDNL (GeneID 137902) #3 gave: log2 vehicle/camptothecin viability -0.391; inactive.
PXDNL (GeneID 137902) #4 gave log2 vehicle/camptothecin viability -0.554; inactive.
Depletion of POLR2M (GeneID 81488) #1 gave: log2 vehicle/camptothecin viability -0.243; inactive.
For POLR2M (GeneID 81488) #2, the values are log2 vehicle/camptothecin viability -0.14; inactive.
POLR2M (GeneID 81488) #3 scored log2 vehicle/camptothecin viability -0.125; inactive.
For POLR2M (GeneID 81488) #4, the values are log2 vehicle/camptothecin viability -0.361; inactive.
For POLR2M (GeneID 81488) #5 the deposit lists log2 vehicle/camptothecin viability -0.146; inactive.
Depletion of POLR2M (GeneID 81488) #6 resulted in: log2 vehicle/camptothecin viability -0.203; inactive.
Knock-down of POLR2M (GeneID 81488) #7 came out at: log2 vehicle/camptothecin viability -0.111; inactive.
With knock-down of POLR2M (GeneID 81488) #8 the results were log2 vehicle/camptothecin viability -0.643; inactive.
With knock-down of FLVCR1 (GeneID 28982) #1, the record shows log2 vehicle/camptothecin viability 0.0772; inactive.
Against FLVCR1 (GeneID 28982) #2, the entry reads log2 vehicle/camptothecin viability -0.297; inactive.
With knock-down of FLVCR1 (GeneID 28982) #3, the screen gave log2 vehicle/camptothecin viability -0.399; inactive.
ACVR1C (GeneID 130399) #1 gave log2 vehicle/camptothecin viability -0.159; inactive.
Depletion of ACVR1C (GeneID 130399) #2 came out at: log2 vehicle/camptothecin viability 0.0574; inactive.
After knock-down of ACVR1C (GeneID 130399) #3, the screen gave log2 vehicle/camptothecin viability -0.122; inactive.
With knock-down of GCK (GeneID 2645) #1, the record shows log2 vehicle/camptothecin viability 0.158; inactive.
Depletion of GCK (GeneID 2645) #2 gave: log2 vehicle/camptothecin viability 0.0135; inactive.
GCK (GeneID 2645) #3 scored log2 vehicle/camptothecin viability -0.0655; inactive.
GCK (GeneID 2645) #4 scored log2 vehicle/camptothecin viability -0.263; inactive.
Silencing of PPP1R14C (GeneID 81706) #1 came out at: log2 vehicle/camptothecin viability 0.191; inactive.
For PPP1R14C (GeneID 81706) #2 the deposit lists log2 vehicle/camptothecin viability -0.139; inactive.
Silencing of PPP1R14C (GeneID 81706) #3 resulted in: log2 vehicle/camptothecin viability -0.57; inactive.
With knock-down of PPP1R14C (GeneID 81706) #4, the record shows log2 vehicle/camptothecin viability -0.0747; inactive.
CACNA1I (GeneID 8911) #1 showed log2 vehicle/camptothecin viability 0.284; inactive.
Against CACNA1I (GeneID 8911) #2, the values are log2 vehicle/camptothecin viability -0.51; inactive.
Against CACNA1I (GeneID 8911) #3, the entry reads log2 vehicle/camptothecin viability 0.114; inactive.
CACNA1I (GeneID 8911) #4 gave log2 vehicle/camptothecin viability 0.379; inactive.
Against GABRR1 (GeneID 2569) #1 the deposit lists log2 vehicle/camptothecin viability -0.0342; inactive.
With knock-down of GABRR1 (GeneID 2569) #2, the screen gave log2 vehicle/camptothecin viability 0.396; inactive.
Knock-down of GABRR1 (GeneID 2569) #3 gave: log2 vehicle/camptothecin viability -0.0366; inactive.
GABRR1 (GeneID 2569) #4 showed log2 vehicle/camptothecin viability -0.26; inactive.
CENPB (GeneID 1059) #1 scored log2 vehicle/camptothecin viability -0.208; inactive.
With knock-down of CENPB (GeneID 1059) #2, the screen gave log2 vehicle/camptothecin viability -0.171; inactive.
Knock-down of CENPB (GeneID 1059) #3 resulted in: log2 vehicle/camptothecin viability 0.00534; inactive.
Against CENPB (GeneID 1059) #4, the entry reads log2 vehicle/camptothecin viability -0.011; inactive.

No new results follow: entries from further up.
POLR2M (GeneID 81488) #2 → log2 vehicle/camptothecin viability = -0.14; call = inactive
POLR2M (GeneID 81488) #3 → log2 vehicle/camptothecin viability = -0.125; call = inactive
POLR2M (GeneID 81488) #4 → log2 vehicle/camptothecin viability = -0.361; call = inactive
